Results are given in words; binding and its absence hold for the method and conditions named. In cells and extracts the contact can be indirect. Here binding means that the protein was enriched with, or labelled near, the bait; the list need not be complete.
Target: Bcl-2 nineteen kilodalton interacting protein 3 (human) (human (endogenous in LV myocardium)) (UniProt Q12983)
Test: affinity purification with mass spectrometry; 500 ug lysate of human HFrEF LV myocardium (n = 3, taken at LVAD implantation) incubated with 10 ug mouse monoclonal BNIP3 antibody (Abcam ab10433); eluate on SDS-PAGE, in-gel trypsin digestion, nano-LC-MS/MS

Amino acid sequences for entries named in this document (tags omitted).
UniProt Q12983: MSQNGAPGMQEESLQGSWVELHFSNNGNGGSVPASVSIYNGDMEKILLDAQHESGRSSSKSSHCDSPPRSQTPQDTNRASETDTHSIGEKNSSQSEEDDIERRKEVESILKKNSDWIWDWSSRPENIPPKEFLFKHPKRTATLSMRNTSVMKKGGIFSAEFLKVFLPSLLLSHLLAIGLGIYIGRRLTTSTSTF
UniProt Q9NS69: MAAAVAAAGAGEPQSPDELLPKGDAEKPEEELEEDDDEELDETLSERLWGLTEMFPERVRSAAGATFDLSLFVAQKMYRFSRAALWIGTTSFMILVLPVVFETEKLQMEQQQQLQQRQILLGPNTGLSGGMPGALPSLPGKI
UniProt Q9Y262: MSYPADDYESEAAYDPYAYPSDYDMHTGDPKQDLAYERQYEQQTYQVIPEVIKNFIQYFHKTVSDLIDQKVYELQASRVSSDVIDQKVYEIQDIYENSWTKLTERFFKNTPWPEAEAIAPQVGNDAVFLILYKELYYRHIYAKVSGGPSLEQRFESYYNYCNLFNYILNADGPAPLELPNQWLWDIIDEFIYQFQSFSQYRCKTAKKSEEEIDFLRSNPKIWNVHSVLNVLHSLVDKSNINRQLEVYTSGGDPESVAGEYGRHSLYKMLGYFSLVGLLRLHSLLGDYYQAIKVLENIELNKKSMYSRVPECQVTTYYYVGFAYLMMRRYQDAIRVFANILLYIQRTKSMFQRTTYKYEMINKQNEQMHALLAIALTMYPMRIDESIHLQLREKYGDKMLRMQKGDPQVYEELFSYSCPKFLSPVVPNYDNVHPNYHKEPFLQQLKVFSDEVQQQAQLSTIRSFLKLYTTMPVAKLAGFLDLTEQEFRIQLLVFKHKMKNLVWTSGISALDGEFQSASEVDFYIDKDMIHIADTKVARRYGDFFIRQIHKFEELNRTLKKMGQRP
UniProt P60842: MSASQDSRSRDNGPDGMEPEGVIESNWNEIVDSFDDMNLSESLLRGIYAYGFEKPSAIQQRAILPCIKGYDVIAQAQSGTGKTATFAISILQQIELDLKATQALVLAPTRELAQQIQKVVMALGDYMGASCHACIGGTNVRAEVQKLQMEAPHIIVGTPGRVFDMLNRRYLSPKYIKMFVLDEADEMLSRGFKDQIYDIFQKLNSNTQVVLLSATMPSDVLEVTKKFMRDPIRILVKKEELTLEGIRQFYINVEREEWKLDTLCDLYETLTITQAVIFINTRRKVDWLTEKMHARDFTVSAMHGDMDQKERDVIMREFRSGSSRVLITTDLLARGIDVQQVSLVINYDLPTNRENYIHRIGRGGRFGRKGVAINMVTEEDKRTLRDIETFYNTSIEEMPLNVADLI
UniProt P12235: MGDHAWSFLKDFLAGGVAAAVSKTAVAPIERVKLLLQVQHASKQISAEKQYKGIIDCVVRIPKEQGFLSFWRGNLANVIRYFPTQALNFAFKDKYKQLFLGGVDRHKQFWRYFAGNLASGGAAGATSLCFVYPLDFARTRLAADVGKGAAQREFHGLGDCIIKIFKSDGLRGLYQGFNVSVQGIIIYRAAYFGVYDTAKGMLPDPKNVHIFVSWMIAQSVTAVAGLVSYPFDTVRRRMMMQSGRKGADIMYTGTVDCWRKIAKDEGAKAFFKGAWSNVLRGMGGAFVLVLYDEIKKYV

binding | Substance
binds | TOMM22 (human) (from UniProt Q9NS69 1-142)
binds | eukaryotic translation initiation factor EIF3L (human) (from UniProt Q9Y262 1-564)
binds | eukaryotic translation initiation factor EIF4A1 (human) (from UniProt P60842 1-406)
binds | ADP/ATP translocase isoform 1 (human) (from UniProt P12235 1-298)

— publication PMC9105187
